Results are given in words; binding and its absence hold for the method and conditions named.

Data on 1 substance can be found in PMC7655804.

This experiment has as its target ferroportin from Philippine tarsier (Carlito syrichta / Tarsius syrichta) (Carlito syrichta (Tarsius syrichta, Philippine tarsier)). The experiment can be described thus: SEC; purified TsFpn alone on SRT-3C SEC-300 column; 20 mM HEPES pH 7.5, 150 mM NaCl, 1 mM DDM; both purified. A general note: Size exclusion chromatography separates by hydrodynamic size, large species first.

As for “ferroportin from Philippine tarsier (Carlito syrichta / Tarsius syrichta) (from UniProt A0A1U7U6F1 1-572)”, the binding result is listed as “no binding”.
